The values that follow come from PMC2483412.

Chains of the proteins cited; added tags and fusions are not shown.
UniProt Q96GD4: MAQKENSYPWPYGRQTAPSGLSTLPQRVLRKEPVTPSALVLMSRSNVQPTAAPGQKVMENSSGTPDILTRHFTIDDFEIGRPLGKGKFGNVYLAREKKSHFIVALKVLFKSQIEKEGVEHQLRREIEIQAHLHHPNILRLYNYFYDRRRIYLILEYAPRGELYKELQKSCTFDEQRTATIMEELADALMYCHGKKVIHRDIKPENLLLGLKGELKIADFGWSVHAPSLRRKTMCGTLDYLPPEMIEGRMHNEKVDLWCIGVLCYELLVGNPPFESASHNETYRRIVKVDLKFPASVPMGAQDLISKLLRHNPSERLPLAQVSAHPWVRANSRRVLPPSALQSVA

No constants are given. Whether binding was seen depends on the method and setting. Binding seen in cells or lysates may run through a third protein. Some entries that bind do so weakly or less than the wild type.

In this assay the target is T1, endogenous RasGAP of human tumor cell lines (human (endogenous in HeLa, HCT116, Panc 10.05)) (UniProt P20936).
T1 sequence: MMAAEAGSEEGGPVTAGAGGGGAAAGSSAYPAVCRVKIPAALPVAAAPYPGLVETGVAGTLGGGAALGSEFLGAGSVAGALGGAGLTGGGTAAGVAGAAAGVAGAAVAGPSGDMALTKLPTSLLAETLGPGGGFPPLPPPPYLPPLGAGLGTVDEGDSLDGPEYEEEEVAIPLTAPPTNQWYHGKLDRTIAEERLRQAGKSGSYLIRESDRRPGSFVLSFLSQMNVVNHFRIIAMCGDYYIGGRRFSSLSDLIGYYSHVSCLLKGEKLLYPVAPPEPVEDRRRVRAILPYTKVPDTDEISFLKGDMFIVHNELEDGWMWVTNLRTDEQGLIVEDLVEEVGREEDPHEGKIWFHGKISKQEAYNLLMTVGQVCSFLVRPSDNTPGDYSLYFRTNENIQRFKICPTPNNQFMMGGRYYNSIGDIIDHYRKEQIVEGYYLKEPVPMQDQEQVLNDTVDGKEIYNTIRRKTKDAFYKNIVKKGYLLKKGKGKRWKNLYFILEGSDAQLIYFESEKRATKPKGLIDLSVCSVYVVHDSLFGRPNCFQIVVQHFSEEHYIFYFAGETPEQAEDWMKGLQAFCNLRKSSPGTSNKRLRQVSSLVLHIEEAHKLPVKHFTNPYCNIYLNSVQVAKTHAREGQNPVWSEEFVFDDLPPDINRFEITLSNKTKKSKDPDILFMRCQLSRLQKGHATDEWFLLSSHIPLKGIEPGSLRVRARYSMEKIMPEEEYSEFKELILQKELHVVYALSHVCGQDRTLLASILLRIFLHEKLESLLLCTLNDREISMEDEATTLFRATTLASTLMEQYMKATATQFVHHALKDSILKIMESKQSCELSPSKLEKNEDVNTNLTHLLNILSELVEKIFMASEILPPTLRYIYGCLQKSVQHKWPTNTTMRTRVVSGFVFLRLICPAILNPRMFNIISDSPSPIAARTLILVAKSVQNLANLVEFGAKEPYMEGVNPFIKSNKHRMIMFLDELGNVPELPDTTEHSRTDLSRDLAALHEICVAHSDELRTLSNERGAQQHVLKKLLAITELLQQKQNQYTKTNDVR
Description: pull-down; RasGAP captured on a p62DOK-derived, RasGAP SH2-interacting peptide coupled to CNBr-sepharose from 300 µg lysate of HeLa, HCT116 or Panc 10.05 cells expressing control aptamer C6 or RG27, 2 h at 4°C; blots for RasGAP and Aurora B.

Turning to “Aurora B kinase (from UniProt Q96GD4 1-344) (enzyme)”, the binding result is recorded as “binds”.
